Experimental data published in patent EP2970419B1.
These are yes or no findings as the source states them, for the method shown. Binding seen in cells or lysates may run through a third protein. Some binding calls cover weakened binding; strength is not graded here.

The chains behind the UniProt entries cited, without tags or fusion partners.
UniProt P05198: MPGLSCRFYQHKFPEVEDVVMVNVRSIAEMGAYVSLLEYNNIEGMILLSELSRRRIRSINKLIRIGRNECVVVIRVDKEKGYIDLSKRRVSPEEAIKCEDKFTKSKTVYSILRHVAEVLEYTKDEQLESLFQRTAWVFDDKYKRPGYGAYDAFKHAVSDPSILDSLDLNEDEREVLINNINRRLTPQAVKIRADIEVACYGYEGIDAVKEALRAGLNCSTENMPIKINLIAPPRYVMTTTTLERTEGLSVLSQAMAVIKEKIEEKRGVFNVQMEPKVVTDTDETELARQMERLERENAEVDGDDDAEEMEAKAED
UniProt O15105: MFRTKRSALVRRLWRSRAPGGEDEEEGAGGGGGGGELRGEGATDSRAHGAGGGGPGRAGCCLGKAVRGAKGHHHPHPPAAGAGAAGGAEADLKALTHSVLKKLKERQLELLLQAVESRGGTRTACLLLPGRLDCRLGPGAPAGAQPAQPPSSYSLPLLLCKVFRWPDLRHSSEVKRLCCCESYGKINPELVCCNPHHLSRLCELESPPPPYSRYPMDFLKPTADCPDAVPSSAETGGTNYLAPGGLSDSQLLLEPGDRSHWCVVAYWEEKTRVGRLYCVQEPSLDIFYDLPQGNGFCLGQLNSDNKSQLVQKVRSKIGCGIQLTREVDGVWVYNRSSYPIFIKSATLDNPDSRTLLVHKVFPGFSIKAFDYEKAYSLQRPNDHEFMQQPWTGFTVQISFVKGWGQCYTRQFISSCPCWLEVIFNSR

Biological target: eukaryotic initiation factor 2 alpha (human) (UniProt P05198)
Assay: co-immunoprecipitation with anti-SMAD7 antibody from whole cell extracts (HCT-116, DLD-1, primary colorectal cancer cells), Western blot with anti-EiF2α

Substance: SMAD7 (endogenous, human colorectal cancer cells) (from UniProt O15105 1-426)
- binding: binds
